Measured values as given in publication PMC3804511.
Results are given in words; binding and its absence hold for the method and conditions named. Binding seen in cells or lysates may run through a third protein. A result given as binding can be weak or reduced; the word gives no strength. Where a sequence is shown, tags or fusion partners need not be part of it.

Protein sequences, listed by entry. Tags and fused reporters are not part of them. Lines headed by an entry give the natural chain unless they say otherwise; changes in a name come on top.
UniProt P38692: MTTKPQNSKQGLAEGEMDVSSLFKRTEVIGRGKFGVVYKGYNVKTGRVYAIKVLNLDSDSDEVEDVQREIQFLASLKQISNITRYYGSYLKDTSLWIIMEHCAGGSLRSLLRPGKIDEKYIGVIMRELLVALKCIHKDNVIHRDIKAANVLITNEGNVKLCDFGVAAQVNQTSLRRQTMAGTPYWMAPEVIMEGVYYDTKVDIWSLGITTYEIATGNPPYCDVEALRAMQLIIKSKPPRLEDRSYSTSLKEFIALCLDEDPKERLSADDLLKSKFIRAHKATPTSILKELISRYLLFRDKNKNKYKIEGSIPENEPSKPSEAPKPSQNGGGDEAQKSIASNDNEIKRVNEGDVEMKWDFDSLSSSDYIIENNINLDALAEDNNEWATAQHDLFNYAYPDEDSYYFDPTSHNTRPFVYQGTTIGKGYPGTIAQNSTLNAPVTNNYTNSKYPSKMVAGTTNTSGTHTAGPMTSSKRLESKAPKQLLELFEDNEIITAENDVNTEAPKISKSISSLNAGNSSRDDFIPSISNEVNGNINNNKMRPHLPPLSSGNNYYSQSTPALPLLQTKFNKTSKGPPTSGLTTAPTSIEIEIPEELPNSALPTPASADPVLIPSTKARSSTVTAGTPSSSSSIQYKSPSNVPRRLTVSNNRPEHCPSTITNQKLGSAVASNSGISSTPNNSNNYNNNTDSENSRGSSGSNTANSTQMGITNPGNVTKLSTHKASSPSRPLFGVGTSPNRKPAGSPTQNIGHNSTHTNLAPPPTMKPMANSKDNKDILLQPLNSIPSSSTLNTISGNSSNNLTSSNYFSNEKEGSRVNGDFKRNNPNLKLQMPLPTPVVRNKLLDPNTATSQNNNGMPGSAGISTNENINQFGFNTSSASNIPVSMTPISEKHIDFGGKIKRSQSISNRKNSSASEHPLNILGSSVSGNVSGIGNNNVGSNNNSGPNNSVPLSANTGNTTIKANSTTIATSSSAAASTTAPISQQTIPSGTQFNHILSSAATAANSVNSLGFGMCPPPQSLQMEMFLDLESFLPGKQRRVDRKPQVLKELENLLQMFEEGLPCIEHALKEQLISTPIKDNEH

Target: T1, Hym1-13myc (S. cerevisiae) (UniProt P32464)
T1 sequence: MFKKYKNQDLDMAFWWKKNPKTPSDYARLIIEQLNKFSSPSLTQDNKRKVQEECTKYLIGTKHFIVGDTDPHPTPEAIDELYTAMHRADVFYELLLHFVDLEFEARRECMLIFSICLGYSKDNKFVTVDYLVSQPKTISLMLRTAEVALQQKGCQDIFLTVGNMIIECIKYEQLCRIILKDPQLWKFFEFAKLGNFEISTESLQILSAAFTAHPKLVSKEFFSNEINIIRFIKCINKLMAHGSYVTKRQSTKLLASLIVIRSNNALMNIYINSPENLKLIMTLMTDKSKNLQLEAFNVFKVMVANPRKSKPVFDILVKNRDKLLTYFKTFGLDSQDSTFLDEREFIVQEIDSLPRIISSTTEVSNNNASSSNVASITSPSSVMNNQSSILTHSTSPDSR
Assay: co-IP; yeast cell lysates (bead beating) of strains with both tagged proteins; Hym1-myc immunoprecipitated with anti-c-Myc 9E10 on Dynabeads Protein G, Kic1-HA detected by anti-HA blot; also at 10 min intervals after release from GAL-CDC20 arrest

binding: binds
Substance: HA-tagged catalytically inactive Kic1 allele (kic1-DEAD) (from UniProt P38692) (enzyme)
